Data as given in PubChem BioAssay AID1159584 (Peter MacCallum Cancer Centre, 2016)
The deposit covers about 18,000 reagents; below is a random part of them. Further read-outs or replicates are left out here. Not stated in the record: the amount of reagent, the time to read-out.

- Screen: 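Genes that CDH1-null MCF10A cells selectively depend on to survive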 (primary screen)
- Cells: human MCF10A breast epithelial cells, parental and CDH1-null
- Knock-down reagent: siRNA against human genes
- Measurement: 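Cell viability by CellTiter-Glo ATP luminescence, each line scaled to the mean of mock wells across plates, then CDH1-null over parental ratio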
- Reading the numbers: CDH1-null / parental viability ratio: higher = CDH1-null cells survive relatively better than parental; CDH1-null viability vs mock: higher = more viable CDH1-null cells
- Units: CDH1-null viability vs mock in fraction of mock

{"target": "CEP164 (GeneID 22897)", "CDH1-null / parental viability ratio": 0.7, "CDH1-null viability vs mock": 0.35}
{"target": "PRKAR1B (GeneID 5575)", "CDH1-null / parental viability ratio": 1.02, "CDH1-null viability vs mock": 0.84}
{"target": "KDM7A (GeneID 80853)", "CDH1-null / parental viability ratio": 1.02, "CDH1-null viability vs mock": 0.91}
{"target": "CTAGE15 (GeneID 441294)", "CDH1-null / parental viability ratio": 0.81, "CDH1-null viability vs mock": 0.7}
{"target": "IZUMO2 (GeneID 126123)", "CDH1-null / parental viability ratio": 0.9, "CDH1-null viability vs mock": 0.9}
{"target": "GTPBP8 (GeneID 29083)", "CDH1-null / parental viability ratio": 1.05, "CDH1-null viability vs mock": 0.9}
{"target": "FABP9 (GeneID 646480)", "CDH1-null / parental viability ratio": 1.13, "CDH1-null viability vs mock": 0.34}
{"target": "OR4K17 (GeneID 390436)", "CDH1-null / parental viability ratio": 1.16, "CDH1-null viability vs mock": 1.04}
{"target": "PVALB (GeneID 5816)", "CDH1-null / parental viability ratio": 1.29, "CDH1-null viability vs mock": 0.36}
{"target": "GABRR1 (GeneID 2569)", "CDH1-null / parental viability ratio": 1.49, "CDH1-null viability vs mock": 0.82}
{"target": "MCOLN3 (GeneID 55283)", "CDH1-null / parental viability ratio": 1.33, "CDH1-null viability vs mock": 0.6}
{"target": "SLC11A2 (GeneID 4891)", "CDH1-null / parental viability ratio": 1.18, "CDH1-null viability vs mock": 0.73}
{"target": "WDR41 (GeneID 55255)", "CDH1-null / parental viability ratio": 0.89, "CDH1-null viability vs mock": 1.03}
{"target": "GABRA2 (GeneID 2555)", "CDH1-null / parental viability ratio": 1.12, "CDH1-null viability vs mock": 1.03}
{"target": "GP9 (GeneID 2815)", "CDH1-null / parental viability ratio": 1.2, "CDH1-null viability vs mock": 0.53}
{"target": "ENPP7 (GeneID 339221)", "CDH1-null / parental viability ratio": 1.17, "CDH1-null viability vs mock": 0.94}
{"target": "WDR72 (GeneID 256764)", "CDH1-null / parental viability ratio": 1.16, "CDH1-null viability vs mock": 1.14}
{"target": "CD74 (GeneID 972)", "CDH1-null / parental viability ratio": 1.04, "CDH1-null viability vs mock": 1.04}
{"target": "H4C4 (GeneID 8360)", "CDH1-null / parental viability ratio": 1.42, "CDH1-null viability vs mock": 0.74}
{"target": "PRKX (GeneID 5613)", "CDH1-null / parental viability ratio": 0.77, "CDH1-null viability vs mock": 0.56}
{"target": "CHL1 (GeneID 10752)", "CDH1-null / parental viability ratio": 1.06, "CDH1-null viability vs mock": 1.08}
{"target": "SCN8A (GeneID 6334)", "CDH1-null / parental viability ratio": 1.16, "CDH1-null viability vs mock": 0.88}
{"target": "CHD9 (GeneID 80205)", "CDH1-null / parental viability ratio": 1.19, "CDH1-null viability vs mock": 0.96}
{"target": "SHROOM4 (GeneID 57477)", "CDH1-null / parental viability ratio": 1, "CDH1-null viability vs mock": 0.84}
{"target": "SPMAP2 (GeneID 51298)", "CDH1-null / parental viability ratio": 1.12, "CDH1-null viability vs mock": 1.14}
{"target": "TIRAP (GeneID 114609)", "CDH1-null / parental viability ratio": 0.98, "CDH1-null viability vs mock": 0.58}
{"target": "MTCL1 (GeneID 23255)", "CDH1-null / parental viability ratio": 0.85, "CDH1-null viability vs mock": 0.74}
{"target": "NKD1 (GeneID 85407)", "CDH1-null / parental viability ratio": 0.95, "CDH1-null viability vs mock": 0.55}
{"target": "APLNR (GeneID 187)", "CDH1-null / parental viability ratio": 0.8, "CDH1-null viability vs mock": 0.78}
{"target": "SELENOP (GeneID 6414)", "CDH1-null / parental viability ratio": 1.22, "CDH1-null viability vs mock": 0.94}
{"target": "CNIH2 (GeneID 254263)", "CDH1-null / parental viability ratio": 0.68, "CDH1-null viability vs mock": 0.45}
{"target": "FBLN5 (GeneID 10516)", "CDH1-null / parental viability ratio": 1.14, "CDH1-null viability vs mock": 0.58}
{"target": "SPACA4 (GeneID 171169)", "CDH1-null / parental viability ratio": 1.2, "CDH1-null viability vs mock": 1.06}
{"target": "PPWD1 (GeneID 23398)", "CDH1-null / parental viability ratio": 0.92, "CDH1-null viability vs mock": 0.66}
{"target": "MPHOSPH9 (GeneID 10198)", "CDH1-null / parental viability ratio": 0.91, "CDH1-null viability vs mock": 0.8}
{"target": "SCO1 (GeneID 6341)", "CDH1-null / parental viability ratio": 1.21, "CDH1-null viability vs mock": 0.4}
{"target": "USP43 (GeneID 124739)", "CDH1-null / parental viability ratio": 1.27, "CDH1-null viability vs mock": 0.62}
{"target": "DLL1 (GeneID 28514)", "CDH1-null / parental viability ratio": 0.85, "CDH1-null viability vs mock": 0.7}
{"target": "ACR (GeneID 49)", "CDH1-null / parental viability ratio": 1.21, "CDH1-null viability vs mock": 0.7}
{"target": "KCNJ15 (GeneID 3772)", "CDH1-null / parental viability ratio": 1.46, "CDH1-null viability vs mock": 0.82}
{"target": "XPC (GeneID 7508)", "CDH1-null / parental viability ratio": 0.99, "CDH1-null viability vs mock": 1.07}
{"target": "TGM7 (GeneID 116179)", "CDH1-null / parental viability ratio": 0.76, "CDH1-null viability vs mock": 0.62}
{"target": "CORO7 (GeneID 79585)", "CDH1-null / parental viability ratio": 1.67, "CDH1-null viability vs mock": 0.7}
{"target": "SAR1A (GeneID 56681)", "CDH1-null / parental viability ratio": 1, "CDH1-null viability vs mock": 1.15}
{"target": "SIT1 (GeneID 27240)", "CDH1-null / parental viability ratio": 0.9, "CDH1-null viability vs mock": 0.82}

Part of the list above in another layout:
H4C4 (GeneID 8360) — CDH1-null / parental viability ratio = 1.42; CDH1-null viability vs mock = 0.74
PRKX (GeneID 5613) — CDH1-null / parental viability ratio = 0.77; CDH1-null viability vs mock = 0.56
CHL1 (GeneID 10752) — CDH1-null / parental viability ratio = 1.06; CDH1-null viability vs mock = 1.08
SCN8A (GeneID 6334) — CDH1-null / parental viability ratio = 1.16; CDH1-null viability vs mock = 0.88
